Test results reported in article doi:10.1101/2025.11.12.688075.
Results are given in words; binding and its absence hold for the method and conditions named. In cells and extracts the contact can be indirect. These calls come from enrichment with a bait or labelling near it, and not all partners need be listed. A no says only that the protein was not detected with the bait.

Molecular target: T1, TurboID-FGF13-S (human) (UniProt Q92913)
T1 sequence: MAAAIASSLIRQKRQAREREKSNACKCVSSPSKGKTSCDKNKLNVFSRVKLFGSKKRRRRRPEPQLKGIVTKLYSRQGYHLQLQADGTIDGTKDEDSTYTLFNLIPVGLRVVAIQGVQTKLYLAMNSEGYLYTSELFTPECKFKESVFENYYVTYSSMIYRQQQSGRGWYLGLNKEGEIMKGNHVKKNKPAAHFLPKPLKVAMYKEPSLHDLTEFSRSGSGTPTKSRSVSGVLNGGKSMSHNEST
Test: proximity labelling

Sodium channel regulatory subunit β1 (from UniProt P97952 19-218)
binding: no binding
